According to the supplement of paper PMC6078165:
The reference is the same well before dosing, and untreated signal decays as well.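 Labels refer to human fibroblasts, largely primary: uterine (C12385, HUF), lung (H6013), bone (Hs27A), adrenal (HADF), skin (WS1), plus mammary HMF and breast cancer-associated Hs343T. Cancer lines are basal-like or mesenchymal-like triple-negative breast cancer. The paper counts as hits responses shifting over 3x the replicate standard deviation. The tissue of the other fibroblasts is not given here.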

Test system: MDAMB468
Assay: relative JC-1 red fluorescence (viability) vs pre-drug, coculture with fibroblast (fraction); higher = more viable cancer cells
Protocol: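 JC-1 labelled TNBC cells cocultured 1:1 (1,500 cells each) with CellTrace Violet stained primary or stromal fibroblasts in 384-well plates in FluoroBrite medium, treated with one of 42 anticancer drugs at 0.1, 1, 10 or 100 uM. JC-1 red fluorescence (mitochondrial integrity in cancer cells only) was read by plate reader every 8 h for 72 h. Values are normalised to each well's pre-drug value. The stock of one drug was tenfold lower, so its dose labels may be too high.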

CO[C@@]12[C@H](COC(N)=O)C3=C(C(=O)C(C)=C(N)C3=O)N1C[C@@H]1N[C@@H]12 [Mitomycin C]
relative JC-1 red fluorescence
Details | 8 h | 16 h | 24 h | 32 h | 40 h | 48 h | 56 h | 64 h | 72 h
0.1 µM, coculture fibroblast: C12385 | 0.902 | 0.845 | 0.785 | 0.713 | 0.663 | 0.641 | 0.594 | 0.5538 | 0.528
0.1 µM, coculture fibroblast: H6013 | 0.888 | 0.831 | 0.7859 | 0.7716 | 0.72 | 0.704 | 0.656 | 0.627 | 0.579
0.1 µM, coculture fibroblast: H6019 | 0.839 | 0.778 | 0.729 | 0.655 | 0.589 | 0.5613 | 0.499 | 0.45385 | 0.4189
0.1 µM, coculture fibroblast: H6076 | 0.982 | 0.961 | 0.9229 | 0.924 | 0.845 | 0.845 | 0.8 | 0.779 | 0.823
0.1 µM, coculture fibroblast: H6231 | 0.834 | 0.863 | 0.91 | 0.8434 | 0.809 | 0.769 | 0.708 | 0.6632 | 0.6323
0.1 µM, coculture fibroblast: HADF | 0.88267 | 0.817 | 0.7346 | 0.719 | 0.659 | 0.634 | 0.594 | 0.572 | 0.5352
0.1 µM, coculture fibroblast: HCFa | 0.871 | 0.797 | 0.741 | 0.719 | 0.642 | 0.633 | 0.581 | 0.541 | 0.501
0.1 µM, coculture fibroblast: HCPF | 0.862 | 0.955 | 0.852 | 0.83 | 0.764 | 0.727 | 0.6638 | 0.645 | 0.615
0.1 µM, coculture fibroblast: HHSteC | 0.922 | 0.853 | 0.82 | 0.789 | 0.746 | 0.743 | 0.673 | 0.643 | 0.585
0.1 µM, coculture fibroblast: HMF | 0.8483 | 0.9333 | 0.848 | 0.82 | 0.752 | 0.726 | 0.677 | 0.656 | 0.631
0.1 µM, coculture fibroblast: HPFa | 0.923 | 0.895 | 0.83 | 0.774 | 0.736 | 0.733 | 0.66 | 0.63 | 0.555
0.1 µM, coculture fibroblast: HUF | 0.9001 | 0.807 | 0.75 | 0.688 | 0.63 | 0.602 | 0.558 | 0.534 | 0.5
0.1 µM, coculture fibroblast: Hs5 | 0.813 | 0.972 | 0.907 | 0.876 | 0.805 | 0.772 | 0.727 | 0.695 | 0.713
0.1 µM, coculture fibroblast: Hs27A | 0.86871 | 0.793 | 0.764 | 0.77 | 0.717 | 0.714 | 0.688 | 0.68 | 0.634
0.1 µM, coculture fibroblast: Hs343T | 0.896 | 0.976 | 0.904 | 0.878 | 0.796 | 0.776 | 0.707 | 0.68 | 0.651
0.1 µM, coculture fibroblast: WS1 | 0.8882 | 0.7914 | 0.736 | 0.671 | 0.618 | 0.588 | 0.553 | 0.516 | 0.491
1 µM, coculture fibroblast: C12385 | 0.872 | 0.7939 | 0.765 | 0.703 | 0.647 | 0.629 | 0.575 | 0.537 | 0.519
1 µM, coculture fibroblast: H6013 | 0.854 | 0.848 | 0.795 | 0.762 | 0.714 | 0.6934 | 0.642 | 0.612 | 0.537
1 µM, coculture fibroblast: H6019 | 0.83 | 0.799 | 0.746 | 0.673 | 0.598 | 0.565 | 0.494 | 0.439 | 0.407
1 µM, coculture fibroblast: H6076 | 0.903 | 0.894 | 0.832 | 0.81 | 0.731 | 0.695 | 0.644 | 0.606 | 0.615
1 µM, coculture fibroblast: H6231 | 0.865 | 0.865 | 0.82 | 0.821 | 0.745 | 0.719 | 0.652 | 0.622 | 0.61
1 µM, coculture fibroblast: HADF | 0.845 | 0.8413 | 0.778 | 0.7643 | 0.714 | 0.687 | 0.639 | 0.63 | 0.565
1 µM, coculture fibroblast: HCFa | 0.847 | 0.828 | 0.766 | 0.723 | 0.646 | 0.63 | 0.581 | 0.541 | 0.484
1 µM, coculture fibroblast: HCPF | 0.8183 | 0.895 | 0.805 | 0.785 | 0.713 | 0.677 | 0.61 | 0.587 | 0.5699
1 µM, coculture fibroblast: HHSteC | 0.8708 | 0.864 | 0.829 | 0.779 | 0.754 | 0.744 | 0.681 | 0.655 | 0.59
1 µM, coculture fibroblast: HMF | 0.819 | 0.919 | 0.847 | 0.806 | 0.724 | 0.695 | 0.633 | 0.599 | 0.557
1 µM, coculture fibroblast: HPFa | 0.951 | 0.8837 | 0.84 | 0.785 | 0.754 | 0.755 | 0.699 | 0.679 | 0.6
1 µM, coculture fibroblast: HUF | 0.9058 | 0.79 | 0.739 | 0.673 | 0.617 | 0.583 | 0.527 | 0.496 | 0.471
1 µM, coculture fibroblast: Hs5 | 0.971 | 0.893 | 0.852 | 0.828 | 0.753 | 0.722 | 0.682 | 0.652 | 0.6812
1 µM, coculture fibroblast: Hs27A | 0.838 | 0.833 | 0.75 | 0.731 | 0.675 | 0.664 | 0.63 | 0.609 | 0.549
1 µM, coculture fibroblast: Hs343T | 0.868 | 0.874 | 0.835 | 0.806 | 0.713 | 0.682 | 0.623 | 0.593 | 0.564
1 µM, coculture fibroblast: WS1 | 0.835 | 0.775 | 0.723 | 0.665 | 0.611 | 0.578 | 0.543 | 0.511 | 0.492
